From publication PMC12126226
No constants are given. Whether binding was seen depends on the method and setting. For some of these results: Binding seen in cells or lysates may run through a third protein. Some entries that bind do so weakly or less than the wild type.

The chains behind the UniProt entries cited, without tags or fusion partners.
UniProt P49773: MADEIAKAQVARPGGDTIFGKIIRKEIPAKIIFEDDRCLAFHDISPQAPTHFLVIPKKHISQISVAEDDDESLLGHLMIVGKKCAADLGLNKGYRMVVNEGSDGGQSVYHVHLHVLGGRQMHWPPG
UniProt P05549: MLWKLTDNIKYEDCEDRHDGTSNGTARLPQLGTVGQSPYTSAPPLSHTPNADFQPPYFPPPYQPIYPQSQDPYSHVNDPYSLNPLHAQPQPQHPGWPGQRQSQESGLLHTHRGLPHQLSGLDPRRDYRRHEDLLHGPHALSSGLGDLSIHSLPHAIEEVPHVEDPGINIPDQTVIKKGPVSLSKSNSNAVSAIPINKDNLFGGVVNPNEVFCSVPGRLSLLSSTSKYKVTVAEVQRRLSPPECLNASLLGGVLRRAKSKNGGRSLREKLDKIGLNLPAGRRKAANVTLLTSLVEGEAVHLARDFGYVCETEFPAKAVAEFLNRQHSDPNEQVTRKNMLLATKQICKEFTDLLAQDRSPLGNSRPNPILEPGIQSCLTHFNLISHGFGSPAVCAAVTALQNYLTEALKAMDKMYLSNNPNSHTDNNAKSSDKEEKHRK

How the values were obtained:
[1] = biological target: purified HINT1 protein (UniProt P49773); experiment: co-IP; in vitro binding assay of purified HINT1 and GST-TFAP2A protein; immunoprecipitated by HINT1 antibody; both purified
[2] = biological target: histidine triad nucleotide-binding protein 1 (HINT1), endogenous in human aortic smooth muscle cells (human (endogenous in HASMCs)) (UniProt P49773); experiment: co-IP; endogenous proteins in HASMCs; immunoprecipitated by HINT1 antibody; cells with PBS or PDGF-BB stimulation for 4 hours, Ang II stimulation, or NUP98 knockdown by siRNA with PDGF-BB
[3] = biological target: Flag-tagged TFAP2A (UniProt P05549); experiment: co-IP; HEK293T cells cotransfected with Flag-TFAP2A and HA-HINT1 plasmids; immunoprecipitated by HA antibody (Figure 6J) or Flag antibody
[4] = biological target: HA-tagged HINT1 (UniProt P49773); experiment: as above

In the case of “purified GST-TFAP2A protein (from UniProt P05549 1-437)”, the binding [1] is reported as “binds”.

“transcription factor AP-2 α (TFAP2A), endogenous in human aortic smooth muscle cells (from UniProt P05549 1-437)” was tested, and the binding [2] was “binds”.

In the case of “HA-tagged HINT1 (from UniProt P49773 1-126)”, the binding [3] is reported as “binds”.

For “Flag-tagged TFAP2A (from UniProt P05549 1-437)”, the binding [4] was “binds”.
